Reference: paper PMC8110583
Results are given in words; binding and its absence hold for the method and conditions named. In cells and extracts the contact can be indirect. These calls come from enrichment with a bait or labelling near it, and not all partners need be listed.

Target: TDP-43 (human (endogenous in GPiNs, G401, T47D, A375)) (UniProt Q13148)
Test: affinity purification with mass spectrometry; IP of endogenous TDP-43 from GPiN lysate (1-2 mg extract, 1-2 ug antibody, 4 C overnight, Protein G beads) against isotype-matched IgG control, triplicate, label-free LC-MS/MS; interactors: log2 FC > 0 and FDR <= 0.1

binding: binds
B1: MATR3 (protein, UniProt P43243 1-847)
chain: MSKSFQQSSLSRDSQGHGRDLSAAGIGLLAAATQSLSMPASLGRMNQGTARLASLMNLGMSSSLNQQGAHSALSSASTSSHNLQSIFNIGSRGPLPLSSQHRGDADQASNILASFGLSARDLDELSRYPEDKITPENLPQILLQLKRRRTEEGPTLSYGRDGRSATREPPYRVPRDDWEEKRHFRRDSFDDRGPSLNPVLDYDHGSRSQESGYYDRMDYEDDRLRDGERCRDDSFFGETSHNYHKFDSEYERMGRGPGPLQERSLFEKKRGAPPSSNIEDFHGLLPKGYPHLCSICDLPVHSNKEWSQHINGASHSRRCQLLLEIYPEWNPDNDTGHTMGDPFMLQQSTNPAPGILGPPPPSFHLGGPAVGPRGNLGAGNGNLQGPRHMQKGRVETSRVVHIMDFQRGKNLRYQLLQLVEPFGVISNHLILNKINEAFIEMATTEDAQAAVDYYTTTPALVFGKPVRVHLSQKYKRIKKPEGKPDQKFDQKQELGRVIHLSNLPHSGYSDSAVLKLAEPYGKIKNYILMRMKSQAFIEMETREDAMAMVDHCLKKALWFQGRCVKVDLSEKYKKLVLRIPNRGIDLLKKDKSRKRSYSPDGKESPSDKKSKTDGSQKTESSTEGKEQEEKSGEDGEKDTKDDQTEQEPNMLLESEDELLVDEEEAAALLESGSSVGDETDLANLGDVASDGKKEPSDKAVKKDGSASAAAKKKLKKVDKIEELDQENEAALENGIKNEENTEPGAESSENADDPNKDTSENADGQSDENKDDYTIPDEYRIGPYQPNVPVGIDYVIPKTGFYCKLCSLFYTNEEVAKNTHCSSLPHYQKLKKFLNKLAEERRQKKET
